Assay results as given in the supplement of paper PMC4604168 (melanoma cell lines).
Some of the results follow. Single values are uncertain, as repeats are few or missing.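 The apoptosis fraction was the count of cleaved-PARP antibody-stained nuclei relative to all DNA-stained nuclei, imaged in 1,536-well plates. Screening doses were set so most cells survived, and baseline and induced cleaved-PARP levels vary greatly across cell lines.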

The molecules below were run on RPMI7951 (assay: cleaved PARP positive nuclei fraction relative to DMSO control; melanoma cells; higher = more apoptosis). Conditions: library dose: low library concentration; 72 h.

Row | SMILES | cleaved PARP positive nuclei fraction [%]
1 | C=C(c1ccc(C(=O)O)cc1)c1cc2c(cc1C)C(C)(C)CCC2(C)C [Bexarotene] + CC(C)(C)c1cnc(CSc2cnc(NC(=O)C3CCNCC3)s2)o1 [SNS-032] (first compound 2 µM, partner dose 0.01 µM) | 320
2 | Cc1cc(Nc2cc(N3CCN(C)CC3)nc(/C=C/c3ccccc3)n2)n[nH]1 + COc1cc(N2CCC(N3CCN(C)CC3)CC2)ccc1Nc1ncc(Cl)c(Nc2ccccc2S(=O)(=O)C(C)C)n1 [NVP-TAE684] (first compound 0.04 µM, partner dose 0.08 µM) | 146
3 | O=C(O)c1ccc2c(c1)nc(Nc1cccc(Cl)c1)c1ccncc12 + Oc1nc(-c2ccc(C(F)(F)F)cc2)nc2c1CSCC2 [XAV939] (first compound 0.4 µM, partner dose 2 µM) | 167
4 | Nc1ccn([C@@H]2O[C@H](CO)[C@@H](O)C2(F)F)c(=O)n1 [gemcitabine] + COC(=O)c1sccc1S(=O)(=O)Nc1ccc(Nc2ccccc2)cc1OC [GSK0660] (first compound 0.0004 µM, partner dose 1 µM) | 38.9
5 | CNC(=O)c1cc(Oc2ccc(NC(=O)Nc3ccc(Cl)c(C(F)(F)F)c3)cc2)ccn1 [sorafenib] + CC(C)(C)c1cnc(CSc2cnc(NC(=O)C3CCNCC3)s2)o1 [SNS-032] (first compound 0.4 µM, partner dose 0.01 µM) | 77.6
6 | Nc1ccn([C@@H]2O[C@H](CO)[C@@H](O)C2(F)F)c(=O)n1 [gemcitabine] + OCCn1cc(-c2cnc3nnn(Cc4ccc5ncccc5c4)c3n2)cn1 [PF04217903] (first compound 0.0004 µM, partner dose 1 µM) | 128
